{"source": "PubChem BioAssay AID1259272 – Sanger Institute, 2017", "screen": "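Kinome-wide siRNA search for genes whose silencing boosts targeted drug effects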 (primary screen)", "cell system": "SW1116 human colorectal cancer cells", "knock-down reagent": "siRNA pool against human genes", "conditions": "anchor drugs BYL719 (1 µM), cetuximab (5 µg/ml) or trametinib (10 nM), or DMSO vehicle; exposure length not given", "measurement": "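Replicate-averaged viability versus control-pool wells, with a robust z-score for siRNA alone and a per-drug synergy score (BYL719, cetuximab, trametinib)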", "reading the numbers": "viability z-score, no drug: higher = more cells remaining; strongly negative means essential gene", "rule for the call": "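Called essential if the drug-free knock-down gives a robust viability z-score below -3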", "calls": "active = essential (knock-down alone); inactive = no change", "note": "Here is an unselected part of 794 reagents tested. Of all reagents, 7 (0.88%) were called active. 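Essential calls reflect knock-down without drug only, not synergy with drugs; drug exposure length not given.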 Further read-outs or replicates are left out here. The record does not give: the amount of reagent, the time to read-out."}
The opening 3 entries, ahead of the listing:
{"Gene": "RPS6KA2", "viability z-score, no drug": -0.999, "activity call": "inactive"}
{"Gene": "NEK4", "viability z-score, no drug": -1.13, "activity call": "inactive"}
{"Gene": "GSK3A", "viability z-score, no drug": -1.26, "activity call": "inactive"}

The listing, from the start:
{"Gene": "RPS6KA2", "viability z-score, no drug": -0.999, "activity call": "inactive"}
{"Gene": "NEK4", "viability z-score, no drug": -1.13, "activity call": "inactive"}
{"Gene": "GSK3A", "viability z-score, no drug": -1.26, "activity call": "inactive"}
{"Gene": "LATS1", "viability z-score, no drug": -0.996, "activity call": "inactive"}
{"Gene": "MAPKAPK5", "viability z-score, no drug": 0.842, "activity call": "inactive"}
{"Gene": "NAGK", "viability z-score, no drug": -1.06, "activity call": "inactive"}
{"Gene": "TAOK3", "viability z-score, no drug": -0.257, "activity call": "inactive"}
{"Gene": "DGKB", "viability z-score, no drug": -1.68, "activity call": "inactive"}
{"Gene": "BRD4", "viability z-score, no drug": 0.38, "activity call": "inactive"}
{"Gene": "WNK2", "viability z-score, no drug": 0.713, "activity call": "inactive"}
{"Gene": "MAP3K20", "viability z-score, no drug": 0.23, "activity call": "inactive"}
{"Gene": "RAD21", "viability z-score, no drug": 0.842, "activity call": "inactive"}
{"Gene": "STK10", "viability z-score, no drug": -0.38, "activity call": "inactive"}
{"Gene": "CRIM1", "viability z-score, no drug": 0.842, "activity call": "inactive"}
{"Gene": "CDC73", "viability z-score, no drug": 0.842, "activity call": "inactive"}
{"Gene": "SLK", "viability z-score, no drug": 0.842, "activity call": "inactive"}
{"Gene": "IPMK", "viability z-score, no drug": 0.842, "activity call": "inactive"}
{"Gene": "PDK1", "viability z-score, no drug": -1.52, "activity call": "inactive"}
{"Gene": "CDKN2C", "viability z-score, no drug": 0.842, "activity call": "inactive"}
{"Gene": "ACVRL1", "viability z-score, no drug": 0.842, "activity call": "inactive"}
{"Gene": "EPHB6", "viability z-score, no drug": 0.415, "activity call": "inactive"}
{"Gene": "MPP2", "viability z-score, no drug": 0.161, "activity call": "inactive"}
{"Gene": "FN3K", "viability z-score, no drug": -1.64, "activity call": "inactive"}
{"Gene": "SGK3", "viability z-score, no drug": -0.756, "activity call": "inactive"}
{"Gene": "ANKK1", "viability z-score, no drug": 0.842, "activity call": "inactive"}
{"Gene": "MYLK", "viability z-score, no drug": -2.03, "activity call": "inactive"}
{"Gene": "CKS1B", "viability z-score, no drug": 0.519, "activity call": "inactive"}
{"Gene": "SMAD4", "viability z-score, no drug": -1.59, "activity call": "inactive"}
